This is one part of the list.
Compound: Cc1cc(ccc1-c1ccccc1)C(=O)N1CCCN(CC1)C(=O)CCl [compound 10]
Assay: probe-labelled cysteine peptide fold change vs DMSO (competition) (log2 fold change); higher = less target engagement (more negative = stronger competition)
Conditions: THP-1, incubation time: 4 h
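Further: competitive profiling in live THP-1 cells: cysteine peptides tagged with an iodoacetamide desthiobiotin (IA-DTB) probe, intensity after compound treatment relative to DMSO-treated cells.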

| Target | probe-labelled cysteine peptide fold change (10 µM) | probe-labelled cysteine peptide fold change (50 µM) |
| --- | --- | --- |
| MLLT1_Q03111_42_GPEQCDIQHFVEK (UniProt Q03111) | -0.0669 | 0.316 |
| MLH1_P40692_77_LIQIQDNGTGIRKEDLDIVCER (UniProt P40692) | -0.0936 | -0.274 |
| MOV10_Q9HCE1_564_AHILACAPSNSGADLLCQR (UniProt Q9HCE1) | 0.124 | 0.0382 |
| MIS18A_Q9NYP9_107_RPLGDSLSWVASQEDTNCILLR (UniProt Q9NYP9) | 0.065 | -0.042 |
| MROH1_Q8NDA8_1035_DGLVHPDPAILFHTCHSVGQIIAK (UniProt Q8NDA8) | 0.023 | -0.0212 |
| MIS18BP1_Q6P0N0_528_ATTTYDFDCDNLELK (UniProt Q6P0N0) | -0.102 | 0.238 |
| MORC3_Q14149_671_NDAVILPSCVEAEAK (UniProt Q14149) | -0.296 | -0.0456 |
| MRC2_Q9UBG0_351_DCSIALPYVCK (UniProt Q9UBG0) | -0.101 | -0.523 |
| MMADHC_Q9H3L0_82_FQLPGNIGFDCHLNGTASQK (UniProt Q9H3L0) | -0.429 | -0.691 |
| MLH1_P40692_672_ECFESLSK (UniProt P40692) | -0.0824 | 0.158 |
| MRPS16_Q9Y3D3_26_LALGGCTNRPFYR (UniProt Q9Y3D3) | -0.596 | 0.0119 |
| MORC3_Q14149_15_LSALCPK (UniProt Q14149) | -0.27 | -1.37 |
| MIS18A_Q9NYP9_85_AQLEEEAAAAEERPLVFLCSGCR (UniProt Q9NYP9) | 0.00435 | -0.0262 |
| MRPL33_O75394_29_MVSEAGTGFCFNTK (UniProt O75394) | -0.0873 | 0.047 |
| MLKL_Q8NB16_437_RQQEPLGEDCPSELREIIDECR (UniProt Q8NB16) | -0.181 | -0.0528 |
| MOCS3_O95396_193_YLVNDACVLAGRPLVSASALR (UniProt O95396) | -0.0959 | -0.0303 |
| MMS19_Q96T76_502_EDSQSCR (UniProt Q96T76) | -0.00531 | -0.404 |
| MRPL45_Q9BRJ2_168_LHTLVTEHCFPDMTWDIK (UniProt Q9BRJ2) | 0.0936 | 0.3 |
| MICAL2_O94851_552_SGLALCAIIHR (UniProt O94851) | 0.0476 | 0.0623 |
| MKLN1_Q9UL63_411_ILTCNGSVDDSR (UniProt Q9UL63) | -0.0665 | -0.214 |
| MLLT10_P55197_140_TCYICDEQGR (UniProt P55197) | -0.419 | -0.305 |
| MMS19_Q96T76_977_IAALQCMHALTR (UniProt Q96T76) | 0.124 | -0.0295 |

| Target | probe-labelled cysteine peptide fold change (10 µM) | probe-labelled cysteine peptide fold change (50 µM) |
| --- | --- | --- |
| MPHOSPH8_Q99549_753_LALLEPVFPIACHR (UniProt Q99549) | 0.0715 | -0.0714 |
| MRPS11_P82912_186_LSAMHGLIMGGLEVISITDNTPIPHNGCRPR (UniProt P82912) | 0.35 | 0.555 |
| MRPL32_Q9BYC8_110+113_NNIDVCPECGHLK (UniProt Q9BYC8) | -0.0295 | 0.176 |
| MICU1_Q9BPX6_275_SGLCSALTTYFFGADLK (UniProt Q9BPX6) | 0.041 | -0.0724 |
| MRPS12_O15235_64_GVVLCTFTR (UniProt O15235) | 0.00519 | -0.316 |
| MKI67_P46013_715_KPVGEVHSQFSTGHANSPCTIIIGK (UniProt P46013) | 0.206 | -0.245 |
| MPRIP_Q6WCQ1_724_EGYVLQATCER (UniProt Q6WCQ1) | -0.232 | -0.225 |
| MICAL2_O94851_1059_PHFIHCK (UniProt O94851) | -0.142 | -0.506 |
| MIS18A_Q9NYP9_231_LSFATCK (UniProt Q9NYP9) | -0.214 | -0.293 |
| MRPL53_Q96EL3_49_STNLNCSVIADVR (UniProt Q96EL3) | 0.164 | 0.0554 |
| MPP6_Q9NZW5_103_CYDSPPSSPEMNNSSINNQLLPVDAIR (UniProt Q9NZW5) | -0.25 | -0.333 |
| MMS19_Q96T76_819_YHPLSSCLTAR (UniProt Q96T76) | -0.124 | -0.176 |
| MIB1_Q86YT6_62_CSGAYDLR (UniProt Q86YT6) | 0.072 | -0.0658 |
| MORF4L2_Q15014_165_NVDAILEEYANCKK (UniProt Q15014) | -0.218 | 0.0129 |
| MRPL3_P09001_127_HVVTLLQVQDCHVLK (UniProt P09001) | -0.0798 | 0.0433 |
| MPP2_Q14168_543_GYGHYFDLCLVNSNLER (UniProt Q14168) | 0.0793 | 0.22 |
| MIOS_Q9NXC5_854+856_DHAECPVSACTCK (UniProt Q9NXC5) | -0.0144 | -0.484 |
| MICAL1_Q8TDZ2_711_LCVNGHFFHR (UniProt Q8TDZ2) | -0.068 | -0.0359 |
| MKLN1_Q9UL63_446_LLREDSCNAGPEDIQSR (UniProt Q9UL63) | 0.078 | 0.0488 |
| MRGBP_Q9NV56_170_NSSDLGCK (UniProt Q9NV56) | 0.169 | -0.229 |
| MRPL10_Q7Z7H8_180_TVPFLPLLGGCIDDTILSR (UniProt Q7Z7H8) | 0.134 | 0.222 |
| MKRN1_Q9UHC7_259_SCIEAHEK (UniProt Q9UHC7) | -0.0884 | -0.311 |

| Target | probe-labelled cysteine peptide fold change (10 µM) | probe-labelled cysteine peptide fold change (50 µM) |
| --- | --- | --- |
| MILR1_Q7Z6M3_38_TNEFPSPCLDSK (UniProt Q7Z6M3) | -0.33 | -0.591 |
| MRPL43_Q8N983_91_VVAEYLNGAVREESIHCK (UniProt Q8N983) | -0.15 | -0.299 |
| MORC3_Q14149_744_ETCHQSTETDAVFLLESINGK (UniProt Q14149) | 0.114 | -0.149 |
| MICAL1_Q8TDZ2_87+95_CLVVGAGPCGLR (UniProt Q8TDZ2) | -0.00296 | -0.103 |
| MITD1_Q8WV92_226_FSLGYCDFDLRPCHETTVDIFHK (UniProt Q8WV92) | 0.0984 | 0.0591 |
| MORC3_Q14149_787_QCSALQHVK (UniProt Q14149) | -0.202 | -0.0601 |
| MRPL38_Q96DV4_321_KHQETMTPAGLSFFQCR (UniProt Q96DV4) | 0.145 | 0.181 |
| MILR1_Q7Z6M3_110_AQVTSCSK (UniProt Q7Z6M3) | -0.255 | -0.888 |
| MMP14_P50281_574_RLLYCQR (UniProt P50281) | -0.276 | -0.518 |
| MPV17_P39210_59_TLTMVSLGCGFVGPVVGGWYK (UniProt P39210) | -0.126 | 0.177 |
| MIA3_Q5JRA6_1513_AGLEDECK (UniProt Q5JRA6) | 0.397 | 0.352 |
| MPP1_Q00013_242_VASMAQSAPSEAPSCSPFGK (UniProt Q00013) | -0.101 | -0.796 |
| MNAT1_P51948_6_MDDQGCPR (UniProt P51948) | -0.131 | -0.166 |
| MPP1_Q00013_242_VASMAQSAPSEAPSCSPFGKK (UniProt Q00013) | -0.328 | -0.951 |
| MRPL38_Q96DV4_321_HQETMTPAGLSFFQCR (UniProt Q96DV4) | -0.112 | 0.114 |
| MKI67_P46013_773_EQPQLTSTCHIAISNSENLLGK (UniProt P46013) | 0.0324 | -0.0646 |
| MICAL3_Q7RTP6_1760_SCPSTPSSGATVDSGK (UniProt Q7RTP6) | -0.0357 | -0.153 |
| MIF4GD_A9UHW6_150_LAQPDSLSKEEEVDCLVLQLHR (UniProt A9UHW6) | 0.105 | -0.279 |
| MOV10_Q9HCE1_172_NGGTQSVTLTHLFPLCR (UniProt Q9HCE1) | 0.174 | 0.271 |
| MRPL37_Q9BZE1_104_DQACYIFHHR (UniProt Q9BZE1) | 0.0327 | -0.253 |
| MIF_P14174_81_LLCGLLAER (UniProt P14174) | 0.142 | -0.0471 |
| MKI67_P46013_1251_IPCDSPQSDPVDTPTSTK (UniProt P46013) | -0.124 | -0.547 |

| Target | probe-labelled cysteine peptide fold change (10 µM) | probe-labelled cysteine peptide fold change (50 µM) |
| --- | --- | --- |
| MRC2_Q9UBG0_213_EDGHLWCATTQDYGKDER (UniProt Q9UBG0) | -0.11 | -1.01 |
| MPP6_Q9NZW5_236_CHFDYNPYNDNLIPCK (UniProt Q9NZW5) | 0.0296 | 0.346 |
| MRC2_Q9UBG0_1107_SCTEETHGFICQK (UniProt Q9UBG0) | -0.229 | -0.343 |
| MMP14_P50281_127_WQHNEITFCIQNYTPK (UniProt P50281) | 0.0208 | 0.0803 |
| MRPL21_Q7Z2W9_203_INSIEIAPCLL (UniProt Q7Z2W9) | 0.277 | -0.0731 |
| MRPL14_Q6P1L8_90_ALIVGHCMPGPR (UniProt Q6P1L8) | -0.313 | -0.357 |
| MLH1_P40692_77_EDLDIVCER (UniProt P40692) | -0.221 | 0.348 |
| MOGS_Q13724_602_CWVALGAR (UniProt Q13724) | 0.0617 | 0.132 |
| MKI67_P46013_35_GIECDIR (UniProt P46013) | 0.396 | 0.101 |
| MMADHC_Q9H3L0_148_VECAIQTCPELLRK (UniProt Q9H3L0) | -0.33 | -0.718 |
| MMS19_Q96T76_331_REVFQTASERVEAEGLAALHSLTACLSR (UniProt Q96T76) | -0.452 | 0.0397 |
| MRPL37_Q9BZE1_366_VFHFLVFQLNTTDLDCNEGVK (UniProt Q9BZE1) | -0.346 | 0.0138 |
| MRPL45_Q9BRJ2_80_SIHLACTAGIFDAYVPPEGDAR (UniProt Q9BRJ2) | 0.157 | 0.206 |
| MKRN1_Q9UHC7_305_FGILSNCNHTYCLK (UniProt Q9UHC7) | -0.0721 | -0.535 |
| MOB4_Q9Y3A3_78_QFCLELNGLAVK (UniProt Q9Y3A3) | 0.0886 | 0.236 |
| MOCOS_Q96EN8_635_LCLIQPFIDLR (UniProt Q96EN8) | -0.00412 | -0.0451 |
| MICAL2_O94851_478_YPNLNSHCVRPHQVK (UniProt O94851) | -0.0816 | -0.303 |
| MPI_P34949_289_GDCVECMACSDNTVR (UniProt P34949) | 0.0622 | -0.0489 |
| MON1B_Q7L1V2_297_NVLAECR (UniProt Q7L1V2) | -0.0901 | -0.142 |
